Source: US20260226131A1 (SHANGHAI INSTITUTE OF MATERIA MEDICA CHINESE ACADEMY OF …, published 2026)
Results are given in words; binding and its absence hold for the method and conditions named. Some entries that bind do so weakly or less than the wild type. Sequences can lack the tags named with a protein.

Chains of the proteins cited; added tags and fusions are not shown. Residues count along the entry.
UniProt P08069, residues 31-932: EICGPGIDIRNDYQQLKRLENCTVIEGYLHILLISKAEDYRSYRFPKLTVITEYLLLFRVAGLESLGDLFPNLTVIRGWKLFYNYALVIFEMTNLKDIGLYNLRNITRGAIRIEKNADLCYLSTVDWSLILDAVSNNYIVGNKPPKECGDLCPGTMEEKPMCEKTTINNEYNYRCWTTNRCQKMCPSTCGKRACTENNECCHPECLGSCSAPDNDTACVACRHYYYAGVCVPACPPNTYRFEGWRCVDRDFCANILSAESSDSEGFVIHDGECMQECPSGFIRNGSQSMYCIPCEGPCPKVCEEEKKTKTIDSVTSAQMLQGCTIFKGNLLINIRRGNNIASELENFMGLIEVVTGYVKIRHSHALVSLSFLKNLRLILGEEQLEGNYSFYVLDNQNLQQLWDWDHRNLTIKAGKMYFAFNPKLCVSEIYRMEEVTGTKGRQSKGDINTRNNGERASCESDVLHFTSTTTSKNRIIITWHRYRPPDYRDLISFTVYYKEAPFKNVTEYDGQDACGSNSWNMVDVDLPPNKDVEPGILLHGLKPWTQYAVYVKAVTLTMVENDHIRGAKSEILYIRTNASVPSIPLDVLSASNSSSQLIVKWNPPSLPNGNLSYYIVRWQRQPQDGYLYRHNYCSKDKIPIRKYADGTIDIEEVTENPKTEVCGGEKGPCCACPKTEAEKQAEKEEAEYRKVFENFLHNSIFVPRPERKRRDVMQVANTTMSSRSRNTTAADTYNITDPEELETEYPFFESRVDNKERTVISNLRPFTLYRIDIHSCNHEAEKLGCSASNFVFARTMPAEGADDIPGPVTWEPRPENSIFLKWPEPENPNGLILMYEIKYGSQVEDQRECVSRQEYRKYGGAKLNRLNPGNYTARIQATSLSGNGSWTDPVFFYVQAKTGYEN

Target: IGF-1R-His tag (Sino Biological), human insulin-like growth factor 1 receptor (human) (UniProt P08069)
Assay: BLI (Octet), IGF-1R-His captured on Ni-NTA probe

binding: binds
B1: Insulin-Fc fusion protein of Example 1 (B27E+A3-A+A21G) (Fc fusion)
chain: FVNQHLCGSHLVEALYLVCGERGFFYEPKTGGVGGGGIAEQCCTSICSLYQLENYCGGGGGSGGGGSGGGGSGGGGSERKSSVESPPSPAPPVAGPSVFLFPPKPKDTLMISRTPEVTCVVVDVSQEDPEVQFNWYVDGVEVHNAKTKPREEQFNSTFRVVSVLTVLHQDWLNGKEYKCKVSNKGLPSSIEKTISKTKGQPREPQVYTLPPSREEMTKNQVSLTCLVKGFYPSDIAVEWESNGQPENNYKTTPPMLDSDGSFFLYSKLTVDKSRWQQGNVFSCSVMHEALHNHYTQKSLSLSLG
